Measurements from “University of Dundee, Small-Polar-MMV Screening Library” (2021), ChEMBL document CHEMBL3988442.

Sequences of proteins named here, by UniProt entry; tags and fusion partners are left off.
UniProt E9BF75, entry or part of it: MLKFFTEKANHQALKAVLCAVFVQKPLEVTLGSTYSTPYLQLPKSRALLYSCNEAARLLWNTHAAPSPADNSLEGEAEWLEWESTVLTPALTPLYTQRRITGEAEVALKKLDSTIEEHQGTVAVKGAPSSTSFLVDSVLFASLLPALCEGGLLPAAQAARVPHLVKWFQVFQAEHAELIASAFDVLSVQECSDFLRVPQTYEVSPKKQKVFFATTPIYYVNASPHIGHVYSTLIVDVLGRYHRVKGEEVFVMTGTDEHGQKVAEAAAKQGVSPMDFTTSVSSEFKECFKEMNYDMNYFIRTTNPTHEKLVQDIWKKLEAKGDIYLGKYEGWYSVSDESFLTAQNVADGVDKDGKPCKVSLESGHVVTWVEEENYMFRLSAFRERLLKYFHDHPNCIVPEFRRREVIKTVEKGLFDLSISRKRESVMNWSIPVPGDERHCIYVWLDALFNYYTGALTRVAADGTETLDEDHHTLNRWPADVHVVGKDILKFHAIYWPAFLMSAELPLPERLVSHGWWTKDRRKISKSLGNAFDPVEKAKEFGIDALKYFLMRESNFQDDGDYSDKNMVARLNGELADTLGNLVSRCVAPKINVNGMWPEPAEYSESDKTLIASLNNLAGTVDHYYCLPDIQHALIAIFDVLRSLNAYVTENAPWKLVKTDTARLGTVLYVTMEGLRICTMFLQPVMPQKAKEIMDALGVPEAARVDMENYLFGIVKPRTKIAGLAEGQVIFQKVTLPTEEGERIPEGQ

All values are in %.
The controls that fix the scale are not given in the record; negative values are as filed.
This is an unselected part of the compounds tested.

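Primary screen of methionyl-tRNA synthetase; the read-out is not stated. Target: Methionyl-tRNA synthetase (putative), Leishmania donovani (UniProt E9BF75). The test concentration is not given. Values are per cent inhibition. Of about 68,000 compounds tested this way, about 24 (0.035%) reached 50% or more in at least one test.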

structure,Inhibition
COc1ccccc1C(=O)NC(C)CC(=O)O (stereo not drawn),16.67
Cc1ccc(CC(NC(=O)Cn2cnnn2)c2ccccn2)cc1 (stereo not drawn),17.73
O=C1NC[C@H]2CN(Cc3ccccn3)CCN12,9.446
O=C(NCCNc1cnccn1)N1CC=C(c2ccccc2)CC1,17.03
CCN(C(=O)CN1CCCC1Cc1ccccc1)c1ccccc1 (stereo not drawn),4.396
CCc1n[nH]c(C2CN(C(=O)c3nc(C)ncc3Cl)CCO2)n1 (stereo not drawn),5.923
CC(=O)c1ccc(CNC(=O)c2cc(C)nn2C)nc1C,3.495
Cc1cc(NCCNc2cccnc2)nc(N)n1,6.443
COc1ccc(C[C@H]2CN(C(=O)CN(C)C)CC[C@H]2OC)cc1,13.8
O=S1(=O)CCN2C(=N1)Oc1ccc(S(=O)(=O)N3CCCC3)cc12,11.66
CC(C)COCCC(=O)NCCC(=O)N1CCN(c2ccccn2)CC1,17.46
CCNC(c1cccnc1)c1ccc(F)c(F)c1 (stereo not drawn),7.639
Cc1nc(C(=O)Nc2cc(N3CCNC3=O)ccc2Cl)cs1,13.97
CCc1n[nH]c(C2CN(C(=O)c3cc4c(s3)CCC4)CCO2)n1 (stereo not drawn),5.352
COCCN1CCC(c2nc3cc(C)ccc3[nH]2)CC1,13.83
Cc1noc(C)c1CN1C[C@@H]2CC[C@H](C1)N(Cc1cc(F)cc(F)c1)C2,9.926
Cc1ccc2[nH]c(CN3CC[C@@H](N4CCN(C)CC4)[C@H](O)C3)c(C)c2c1,9.677
Cc1nnc([C@H]2CC[C@@H]3[C@@H](CCN3CC3CCOCC3)O2)o1,13.87
CN1CCN(Cc2ccccc2CNC(=O)c2cc(Br)ccc2F)CC1,13.04
Cc1nn(C)c(C)c1C1CCCN1CC(=O)NCc1ccccn1 (stereo not drawn),15.38
CCC(=O)N1CCC(c2ncc3c(n2)CCNC3)CC1,-470.6
CS(=O)(=O)N1CCN(Cc2csc(-c3ncccn3)n2)CC1,9.549
COC(=O)c1ccc(C(=O)N2CCc3c(ncn3C3CC3)C2)cc1,15.26
CN1C[C@@H]2CN(C(=O)NCc3ccccc3)CCC[C@]2(C(=O)O)C1,-14.29
CN(C)C(=O)NCC(=O)N(C)Cc1cc(-c2ccccc2)no1,2.431
CNC(=O)[C@H]1C[C@@H]2CN(c3cc(OC)ncn3)C[C@@H]2N1C(C)C,-0.346
COc1ccc(NCc2ccccc2N2CCN(C(C)=O)CC2)cn1,9.749
CCOc1cc(CNC(=O)NCc2nc(C)c(C)s2)ccn1,13.12
CCOC(=O)N1CC2(CCNCC2)c2cc(Cl)ccc21,11.22
Cc1cc(C)n(CC2CCCN2C(=O)c2cnc3n[nH]c(C)c3c2)n1 (stereo not drawn),17.49
CC(NC(=O)NCCCN1CCCCCC1=O)c1nncn1C (stereo not drawn),1.676
Cc1ccc(CCNC(=O)NCc2cccc(OC(F)F)c2)cn1,22.3
O=C(CC1CCN(c2cccnn2)CC1)NCCO,16.83
O=C(NCc1noc(C2CCCO2)n1)c1cn2ccsc2n1 (stereo not drawn),12.79
CCOCCC(=O)NCc1ccnc(NC2CC2)c1,0.2457
O=C(O)C1CCN(C(=O)CCn2ccc3cc(Br)ccc32)CC1,6.97
CCS(=O)(=O)NCCNCc1ccc(Cl)c2cccnc12,14.65
Cc1nc(C)n(CC2CN(CCCOc3ccccc3)CCO2)n1 (stereo not drawn),14.25
CNC(=O)CS(=O)(=O)NC1CCC(C)CC1 (stereo not drawn),14.71
CN(C)CCOCC1CN(CC2CCOCC2)Cc2nnn(C)c21 (stereo not drawn),11.52
CC(=O)N1CCC(N2CCOC[C@H]2c2nc(-c3ccc(Cl)s3)c[nH]2)CC1,9.831
Cn1cc(C2CCCN2C(=O)Cc2coc(-c3ccccc3)n2)cn1 (stereo not drawn),5.59
CCN(CC)S(=O)(=O)CCNc1ncnc2cc(F)c(F)cc12,12.32
CN(C)C(=O)N1CCC2(CC(=O)N(c3cccc(C#N)c3)C2)C1 (stereo not drawn),8.497
CN(c1ccc(C(N)=O)nn1)C1CCC1,6.41